# Assay results taken from the supplement of paper PMC12819154, “High-throughput peptide-centric local stability assay extends protein–ligand identification to membrane proteins, tissues and bacteria” (Nature Structural & Molecular Biology, 2025).
# Amino acid sequences for entries named in this document (tags omitted). A change or cut given only in a name is not applied to a line headed by its entry.
# UniProt Q96BX8: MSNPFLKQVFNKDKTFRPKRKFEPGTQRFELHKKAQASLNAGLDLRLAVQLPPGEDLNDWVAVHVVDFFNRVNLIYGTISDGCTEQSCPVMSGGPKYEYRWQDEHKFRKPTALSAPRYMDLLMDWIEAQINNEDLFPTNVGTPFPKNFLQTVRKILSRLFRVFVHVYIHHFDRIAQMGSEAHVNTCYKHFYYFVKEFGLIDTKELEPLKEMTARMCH
# UniProt Q969K3: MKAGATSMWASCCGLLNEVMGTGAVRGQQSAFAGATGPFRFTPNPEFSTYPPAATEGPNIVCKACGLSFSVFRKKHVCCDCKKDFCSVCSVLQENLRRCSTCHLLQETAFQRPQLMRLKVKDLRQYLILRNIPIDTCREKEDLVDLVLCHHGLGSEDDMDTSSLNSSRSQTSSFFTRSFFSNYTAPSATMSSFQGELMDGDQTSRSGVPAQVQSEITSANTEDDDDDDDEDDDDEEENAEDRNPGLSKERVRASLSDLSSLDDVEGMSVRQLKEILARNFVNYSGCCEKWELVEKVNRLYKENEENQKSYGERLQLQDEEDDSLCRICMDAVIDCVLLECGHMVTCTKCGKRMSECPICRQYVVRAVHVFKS
# UniProt Q92882: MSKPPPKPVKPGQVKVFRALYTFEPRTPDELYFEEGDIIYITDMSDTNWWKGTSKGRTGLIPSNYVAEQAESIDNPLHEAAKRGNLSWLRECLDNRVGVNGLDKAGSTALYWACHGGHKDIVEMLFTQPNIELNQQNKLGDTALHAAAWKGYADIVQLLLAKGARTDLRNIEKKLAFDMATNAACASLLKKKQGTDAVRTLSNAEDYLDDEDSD
# UniProt Q96A72, whole entry: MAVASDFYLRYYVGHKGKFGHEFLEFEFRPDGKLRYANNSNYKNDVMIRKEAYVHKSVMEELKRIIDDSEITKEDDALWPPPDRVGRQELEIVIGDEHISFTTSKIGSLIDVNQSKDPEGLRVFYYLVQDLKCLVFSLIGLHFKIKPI
# UniProt Q92759: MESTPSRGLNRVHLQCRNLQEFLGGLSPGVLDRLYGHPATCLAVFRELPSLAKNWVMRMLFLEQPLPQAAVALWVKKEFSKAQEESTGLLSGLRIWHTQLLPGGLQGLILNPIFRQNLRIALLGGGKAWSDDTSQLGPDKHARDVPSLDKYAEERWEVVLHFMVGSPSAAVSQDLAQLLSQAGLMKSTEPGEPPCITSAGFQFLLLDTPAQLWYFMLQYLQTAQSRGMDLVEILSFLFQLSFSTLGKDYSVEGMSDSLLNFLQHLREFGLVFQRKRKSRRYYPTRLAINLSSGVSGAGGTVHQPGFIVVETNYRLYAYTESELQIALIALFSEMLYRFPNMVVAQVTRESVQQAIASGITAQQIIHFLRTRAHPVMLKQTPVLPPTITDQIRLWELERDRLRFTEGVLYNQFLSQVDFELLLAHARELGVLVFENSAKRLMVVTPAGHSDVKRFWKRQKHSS
# UniProt Q96D70: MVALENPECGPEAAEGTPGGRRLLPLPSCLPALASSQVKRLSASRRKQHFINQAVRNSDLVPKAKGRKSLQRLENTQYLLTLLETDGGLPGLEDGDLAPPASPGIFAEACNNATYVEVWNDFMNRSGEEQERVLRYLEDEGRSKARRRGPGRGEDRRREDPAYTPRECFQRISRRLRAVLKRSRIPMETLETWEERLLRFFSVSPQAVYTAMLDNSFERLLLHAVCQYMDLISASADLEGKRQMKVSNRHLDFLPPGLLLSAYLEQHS
# UniProt Q96BN8, whole entry: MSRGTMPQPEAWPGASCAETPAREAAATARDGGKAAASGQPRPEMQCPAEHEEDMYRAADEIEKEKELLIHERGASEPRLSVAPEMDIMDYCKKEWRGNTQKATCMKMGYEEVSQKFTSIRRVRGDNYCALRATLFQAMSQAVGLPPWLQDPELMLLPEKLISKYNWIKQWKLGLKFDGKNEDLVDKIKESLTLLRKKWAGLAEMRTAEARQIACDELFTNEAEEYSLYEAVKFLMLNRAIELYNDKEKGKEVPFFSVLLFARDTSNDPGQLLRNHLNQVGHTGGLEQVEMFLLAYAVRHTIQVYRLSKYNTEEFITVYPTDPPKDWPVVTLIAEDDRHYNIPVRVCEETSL
# UniProt Q96CM3: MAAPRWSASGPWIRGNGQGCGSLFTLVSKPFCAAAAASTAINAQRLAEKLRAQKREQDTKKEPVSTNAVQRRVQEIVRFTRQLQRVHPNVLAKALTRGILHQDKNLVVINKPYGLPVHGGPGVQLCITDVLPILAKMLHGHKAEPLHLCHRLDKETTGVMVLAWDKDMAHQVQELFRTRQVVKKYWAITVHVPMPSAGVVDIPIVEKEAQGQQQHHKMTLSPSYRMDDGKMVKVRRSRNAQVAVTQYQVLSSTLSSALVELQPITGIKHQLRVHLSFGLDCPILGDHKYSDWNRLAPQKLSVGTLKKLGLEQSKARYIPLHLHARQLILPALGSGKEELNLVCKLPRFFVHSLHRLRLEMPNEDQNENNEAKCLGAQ
# UniProt Q92839: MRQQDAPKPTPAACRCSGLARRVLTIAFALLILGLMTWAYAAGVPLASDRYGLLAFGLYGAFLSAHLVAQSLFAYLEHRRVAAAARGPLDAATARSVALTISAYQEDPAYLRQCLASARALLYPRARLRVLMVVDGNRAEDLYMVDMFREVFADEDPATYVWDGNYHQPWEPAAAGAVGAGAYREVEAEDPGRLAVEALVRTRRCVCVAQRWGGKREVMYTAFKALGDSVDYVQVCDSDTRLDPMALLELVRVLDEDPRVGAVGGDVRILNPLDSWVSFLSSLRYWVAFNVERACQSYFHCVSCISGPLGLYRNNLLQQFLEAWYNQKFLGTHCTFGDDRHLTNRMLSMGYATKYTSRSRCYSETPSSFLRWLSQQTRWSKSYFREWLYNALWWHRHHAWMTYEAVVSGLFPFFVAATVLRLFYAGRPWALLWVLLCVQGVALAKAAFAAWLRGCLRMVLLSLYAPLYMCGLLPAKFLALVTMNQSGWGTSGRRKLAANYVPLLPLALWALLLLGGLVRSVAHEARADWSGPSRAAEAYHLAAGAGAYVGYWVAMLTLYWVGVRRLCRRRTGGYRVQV
# UniProt Q969Y2: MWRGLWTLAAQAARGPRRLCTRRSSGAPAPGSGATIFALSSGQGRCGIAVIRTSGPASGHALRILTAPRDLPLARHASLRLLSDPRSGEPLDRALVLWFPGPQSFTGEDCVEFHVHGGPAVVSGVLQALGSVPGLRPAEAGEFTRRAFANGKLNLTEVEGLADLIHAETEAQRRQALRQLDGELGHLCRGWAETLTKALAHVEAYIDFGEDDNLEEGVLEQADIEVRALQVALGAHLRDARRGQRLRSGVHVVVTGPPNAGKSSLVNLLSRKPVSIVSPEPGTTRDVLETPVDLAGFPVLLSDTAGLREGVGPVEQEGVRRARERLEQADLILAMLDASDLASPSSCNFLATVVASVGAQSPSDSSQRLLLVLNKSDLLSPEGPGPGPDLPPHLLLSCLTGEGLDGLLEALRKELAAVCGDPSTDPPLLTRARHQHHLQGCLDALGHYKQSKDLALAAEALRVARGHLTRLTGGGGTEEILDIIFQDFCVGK
# UniProt Q92731, whole entry: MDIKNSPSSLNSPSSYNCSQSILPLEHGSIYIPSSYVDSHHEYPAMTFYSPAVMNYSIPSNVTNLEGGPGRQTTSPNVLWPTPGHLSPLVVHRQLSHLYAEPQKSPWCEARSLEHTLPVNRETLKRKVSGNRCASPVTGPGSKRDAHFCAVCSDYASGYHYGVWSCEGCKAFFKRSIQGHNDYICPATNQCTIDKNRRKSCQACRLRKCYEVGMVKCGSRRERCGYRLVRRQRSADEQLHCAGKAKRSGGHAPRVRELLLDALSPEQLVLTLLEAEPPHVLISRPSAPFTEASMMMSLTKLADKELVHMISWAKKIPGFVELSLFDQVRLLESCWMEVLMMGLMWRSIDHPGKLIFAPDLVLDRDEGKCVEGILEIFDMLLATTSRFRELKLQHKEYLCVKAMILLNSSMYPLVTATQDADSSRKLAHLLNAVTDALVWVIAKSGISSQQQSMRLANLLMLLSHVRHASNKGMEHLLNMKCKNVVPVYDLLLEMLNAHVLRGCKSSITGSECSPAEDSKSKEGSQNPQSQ
# UniProt Q92930: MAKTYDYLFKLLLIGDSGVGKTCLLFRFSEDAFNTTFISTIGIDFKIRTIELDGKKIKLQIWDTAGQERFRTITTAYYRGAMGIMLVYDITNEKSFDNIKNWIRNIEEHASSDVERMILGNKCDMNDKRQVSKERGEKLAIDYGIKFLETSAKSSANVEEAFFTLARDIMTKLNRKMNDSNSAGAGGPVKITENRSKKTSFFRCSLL
# UniProt Q96AG4: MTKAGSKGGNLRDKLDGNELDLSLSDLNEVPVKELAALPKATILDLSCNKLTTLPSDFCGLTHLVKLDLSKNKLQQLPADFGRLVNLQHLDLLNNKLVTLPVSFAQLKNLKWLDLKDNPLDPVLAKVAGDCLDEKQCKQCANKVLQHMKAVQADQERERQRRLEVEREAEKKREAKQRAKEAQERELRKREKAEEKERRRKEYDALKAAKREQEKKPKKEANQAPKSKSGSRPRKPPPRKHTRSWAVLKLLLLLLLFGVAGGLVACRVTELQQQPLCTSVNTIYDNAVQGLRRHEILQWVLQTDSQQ
# UniProt Q96AH0: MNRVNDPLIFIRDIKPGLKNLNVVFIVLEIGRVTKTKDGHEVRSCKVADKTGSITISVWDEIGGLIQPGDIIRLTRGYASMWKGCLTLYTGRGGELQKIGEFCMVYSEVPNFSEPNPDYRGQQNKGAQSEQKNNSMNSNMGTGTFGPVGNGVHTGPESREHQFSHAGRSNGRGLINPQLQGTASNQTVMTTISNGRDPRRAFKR
# UniProt Q96C23: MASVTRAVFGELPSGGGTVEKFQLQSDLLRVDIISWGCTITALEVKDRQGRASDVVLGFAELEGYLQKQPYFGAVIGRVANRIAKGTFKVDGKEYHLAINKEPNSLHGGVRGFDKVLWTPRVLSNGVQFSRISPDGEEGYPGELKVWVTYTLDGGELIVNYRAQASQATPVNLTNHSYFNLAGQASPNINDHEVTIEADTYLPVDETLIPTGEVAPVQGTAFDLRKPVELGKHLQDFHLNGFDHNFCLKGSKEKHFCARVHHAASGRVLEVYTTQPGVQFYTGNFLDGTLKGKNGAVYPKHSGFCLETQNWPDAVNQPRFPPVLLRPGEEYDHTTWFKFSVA
# UniProt Q96B01: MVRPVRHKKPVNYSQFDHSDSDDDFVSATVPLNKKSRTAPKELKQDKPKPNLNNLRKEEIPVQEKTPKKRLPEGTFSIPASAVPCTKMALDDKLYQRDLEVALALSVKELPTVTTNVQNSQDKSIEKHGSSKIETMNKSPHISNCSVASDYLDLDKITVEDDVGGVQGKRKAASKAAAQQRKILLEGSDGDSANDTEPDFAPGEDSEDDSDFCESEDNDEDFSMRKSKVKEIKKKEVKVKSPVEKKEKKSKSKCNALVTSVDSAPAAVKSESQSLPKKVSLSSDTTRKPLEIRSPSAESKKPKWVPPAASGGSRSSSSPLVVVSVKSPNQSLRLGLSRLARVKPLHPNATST
# UniProt Q92900: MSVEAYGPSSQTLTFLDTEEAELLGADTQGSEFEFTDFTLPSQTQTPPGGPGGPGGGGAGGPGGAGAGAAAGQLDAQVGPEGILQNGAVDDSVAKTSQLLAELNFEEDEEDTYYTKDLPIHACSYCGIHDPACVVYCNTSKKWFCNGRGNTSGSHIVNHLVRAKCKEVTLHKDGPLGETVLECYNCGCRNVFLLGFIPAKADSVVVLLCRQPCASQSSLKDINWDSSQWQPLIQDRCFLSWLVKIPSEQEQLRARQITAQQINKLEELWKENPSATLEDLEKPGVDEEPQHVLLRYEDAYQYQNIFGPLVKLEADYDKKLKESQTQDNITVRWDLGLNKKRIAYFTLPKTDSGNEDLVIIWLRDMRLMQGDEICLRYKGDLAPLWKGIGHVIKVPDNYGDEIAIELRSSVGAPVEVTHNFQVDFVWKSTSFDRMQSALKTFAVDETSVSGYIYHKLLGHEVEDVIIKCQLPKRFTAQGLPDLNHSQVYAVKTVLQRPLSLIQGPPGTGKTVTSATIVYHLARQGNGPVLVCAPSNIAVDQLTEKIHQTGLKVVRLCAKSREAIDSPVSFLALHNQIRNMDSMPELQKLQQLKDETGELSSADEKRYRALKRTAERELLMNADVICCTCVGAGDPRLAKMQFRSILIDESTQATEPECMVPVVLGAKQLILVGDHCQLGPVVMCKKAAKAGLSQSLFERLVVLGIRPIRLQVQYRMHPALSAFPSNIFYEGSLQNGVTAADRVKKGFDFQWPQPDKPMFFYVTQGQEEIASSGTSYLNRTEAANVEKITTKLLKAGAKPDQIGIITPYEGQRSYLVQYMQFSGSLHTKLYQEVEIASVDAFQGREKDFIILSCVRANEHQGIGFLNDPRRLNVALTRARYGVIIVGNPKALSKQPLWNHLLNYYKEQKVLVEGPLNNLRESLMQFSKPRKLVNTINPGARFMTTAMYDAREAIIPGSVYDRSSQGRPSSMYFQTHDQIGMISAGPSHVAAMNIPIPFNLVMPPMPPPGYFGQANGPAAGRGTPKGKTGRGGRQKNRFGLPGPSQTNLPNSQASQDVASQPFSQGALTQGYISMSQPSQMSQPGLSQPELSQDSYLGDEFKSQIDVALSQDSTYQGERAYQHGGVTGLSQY
# This is one part of the list. Most entries show no effect beyond the scatter of the controls.
# Compound: Cc1nc(Nc2ncc(C(=O)Nc3c(C)cccc3Cl)s2)cc(N2CCN(CCO)CC2)n1 [dasatinib]
# Assay: log2 fold change of tryptic peptide abundance, ligand vs vehicle (limited proteolysis) (log2 ratio); higher = more trypsin-susceptible (destabilized)
# Settings: ligand concentration: 5 uM; sample: K562 cleared lysate
row,Target,log2 fold change
1,"LRRC45 (peptide sequence: VSQLGLQVEGLRR, peptide start residue: 537) (UniProt Q96CN5)",0.192
2,"UniProt Q96BX8 (peptide sequence: IAQMGSEAHVNTCYK, peptide start residue: 174)",0.597
3,"UniProt Q96EK7 (peptide sequence: QYEHDQWR, peptide start residue: 901)",-0.149
4,"RNF34 (peptide sequence: SQTSSFFTR, peptide start residue: 169) (UniProt Q969K3)",0.077
5,"OSTF1 (peptide sequence: LGDTALHAAAWK, peptide start residue: 139) (UniProt Q92882)",-0.437
6,"MAGOHB (peptide sequence: FGHEFLEFEFRPDGK, peptide start residue: 17) (UniProt Q96A72)",0.332
7,"TAF4B (peptide sequence: SIIVSGATAPR, peptide start residue: 379) (UniProt Q92750)",0.337
8,"GTF2H4 (peptide sequence: LYGHPATCLAVFR, peptide start residue: 34) (UniProt Q92759)",-0.543
9,"TRIM44 (peptide sequence: VIADEEQK, peptide start residue: 269) (UniProt Q96DX7)",0.157
10,"RREB1 (peptide sequence: SGTQPHAATR, peptide start residue: 567) (UniProt Q92766)",0.338
11,"BAD (peptide sequence: VFQSWWDR, peptide start residue: 150) (UniProt Q92934)",0.257
12,"GLMN (peptide sequence: STSEENIGIK, peptide start residue: 585) (UniProt Q92990)",-0.0853
13,"GCDH (peptide sequence: QKYLPQLAK, peptide start residue: 162) (UniProt Q92947)",0.759
14,"R3HDM4 (peptide sequence: LLPLPSCLPALASSQVKR, peptide start residue: 23) (UniProt Q96D70)",0.0964
15,"TMEM159 (peptide sequence: AKEEPQSISR, peptide start residue: 2) (UniProt Q96B96)",0.306
16,"UniProt Q96A57 (peptide sequence: TNLATGIPSSK, peptide start residue: 6)",-0.00854
17,"PHF21A (peptide sequence: VVEQLRK, peptide start residue: 54) (UniProt Q96BD5)",-0.279
18,"UniProt Q96BN8 (peptide sequence: AADEIEKEK, peptide start residue: 58)",0.145
19,"RPUSD4 (peptide sequence: EQDTKKEPVSTNAVQR, peptide start residue: 56) (UniProt Q96CM3)",-0.162

row,Target,log2 fold change
1,"UniProt Q92839 (peptide sequence: LAVEALVR, peptide start residue: 194)",-0.0357
2,"GTPBP3 (peptide sequence: SSLVNLLSR, peptide start residue: 263) (UniProt Q969Y2)",0.177
3,"ENTR1 (peptide sequence: NLGLSKEDPASR, peptide start residue: 119) (UniProt Q96C92)",-0.42
4,"UniProt Q96AV8 (peptide sequence: TPIKNEPIDLSK, peptide start residue: 45)",0.495
5,"SMARCE1 (peptide sequence: KLEAELLQIEER, peptide start residue: 240) (UniProt Q969G3)",0.066
6,"UniProt Q92731 (peptide sequence: SLEHTLPVNR, peptide start residue: 112)",0.0732
7,"OPTN (peptide sequence: QFFEIQSK, peptide start residue: 84) (UniProt Q96CV9)",0.174
8,"RAB8B (peptide sequence: MNDSNSAGAGGPVK, peptide start residue: 177) (UniProt Q92930)",-0.0382
9,"GTF3A (peptide sequence: HAVVHDPDKKK, peptide start residue: 297) (UniProt Q92664)",0.38
10,"LRRC59 (peptide sequence: AVQADQER, peptide start residue: 150) (UniProt Q96AG4)",-0.502
11,"RFK (peptide sequence: IKEDNFFQVSK, peptide start residue: 138) (UniProt Q969G6)",-0.0973
12,"EXOSC8 (peptide sequence: LGNTTVICGVK, peptide start residue: 53) (UniProt Q96B26)",0.289
13,"NABP1 (peptide sequence: EHQFSHAGR, peptide start residue: 160) (UniProt Q96AH0)",-0.32
14,"TBRG4 (peptide sequence: DVLLDVAYAYGK, peptide start residue: 293) (UniProt Q969Z0)",0.19
15,"GALM (peptide sequence: VLSNGVQFSR, peptide start residue: 122) (UniProt Q96C23)",0.135
16,"PTCD3 (peptide sequence: FIGPDQHR, peptide start residue: 447) (UniProt Q96EY7)",0.504
17,"RAD51AP1 (peptide sequence: QDKPKPNLNNLR, peptide start residue: 45) (UniProt Q96B01)",-0.482
18,"UPF1 (peptide sequence: LLGHEVEDVIIK, peptide start residue: 456) (UniProt Q92900)",-0.336

# Look-ups from the entries so far.
# For log2 fold change, UniProt Q92839 (peptide sequence: LAVEALVR, peptide start residue: 194) is entered as -0.0357
# For log2 fold change, R3HDM4 (peptide sequence: LLPLPSCLPALASSQVKR, peptide start residue: 23) (UniProt Q96D70) is entered as 0.0964
